Some entries share one result that the patent states for a list of compounds. At least one compound was matched to its structure with a doubt left.
Test: Solubility study in aqueous media at 37° C.

COc1cc(-c2cn(C)c(=O)c(C)c2C)cc(OC)c1CN1CC[C@H](N2CCN(c3ccc(N[C@H]4CCC(=O)NC4=O)cc3F)CC2)C(F)(F)C1 [Pattern A*] gave a solubility (SGF (pH 1.8)) of over 2000 µg/mL and a solubility (pH 1.0 HCl solution (0.1N)) of over 2000 µg/mL.

— patent US20240245677A1, “SELECTED COMPOUNDS FOR TARGETED DEGRADATION OF BRD9” (C4 THERAPEUTICS, INC., priority 2021, published 2024)
